Record: PubChem BioAssay AID1508597 (Cure First, 2020)
Shown is a random part of the about 2,100 reagents, under one of the conditions tested. 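Calls flag viability under 80% in either arm, not effects specific to rucaparib; the reference for percent is not stated.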 A reagent listed more than once was tested more than once; the source does not tell the runs apart. Reagent sequences are not shown. Not stated in the record: the 100% reference.

Test: 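Survival screen with siRNA in ovarian cancer cells derived from patients, with or without rucaparib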 (primary screen)
Cell system: human ovarian carcinoma lines grown from tumours: OCI-P5x (papillary serous) and OCI-C5x (clear cell)
Knock-down reagent: siRNA pool against human genes, 1.25 pmol siRNA per well
Timing: 72 h or 96 h, depending on the cell culture
Challenge: rucaparib 20 µM (about IC30) or vehicle, present until read-out
Rucaparib or vehicle: Rucaparib
Cell line: OCI-C5x (clear cell)
Read-out: 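ATP luminescence measured at 72 or 96 h according to the culture, then normalised and expressed as percent viability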
Scale: viability, normalised: higher = more viable cells remaining
Rule for the call: 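a well counts as a hit if its normalised viability is under 80 percent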
Meaning of the calls: active = viability under 80%; inactive = viability 80% or more

With SLC16A9 [SID405527309], technical replicate 1, the entry reads viability, normalised (%) = 36; active.
For SLC16A9 [SID405527309], technical replicate 2, the values are viability, normalised (%) = 35.3; active.
With SLC16A9 [SID405527309], technical replicate 3 the deposit lists viability, normalised (%) = 30.6; active.
MAP3K5 (mitogen-activated protein kinase kinase kinase 5) [SID405527830], technical replicate 1 scored viability, normalised (%) = 64.3; active.
For MAP3K5 (mitogen-activated protein kinase kinase kinase 5) [SID405527830], technical replicate 2 the deposit lists viability, normalised (%) = 69.3; active.
For MAP3K5 (mitogen-activated protein kinase kinase kinase 5) [SID405527830], technical replicate 3 the deposit lists viability, normalised (%) = 63; active.
NUAK1 (NUAK family kinase 1) [SID405528528], technical replicate 1 showed viability, normalised (%) = 54; active.
With NUAK1 (NUAK family kinase 1) [SID405528528], technical replicate 2, the entry reads viability, normalised (%) = 34; active.
With NUAK1 (NUAK family kinase 1) [SID405528528], technical replicate 3 the deposit lists viability, normalised (%) = 53; active.
UCHL5 (ubiquitin C-terminal hydrolase L5) [SID405526605], technical replicate 1 scored viability, normalised (%) = 76.5; active.
UCHL5 (ubiquitin C-terminal hydrolase L5) [SID405526605], technical replicate 2 gave viability, normalised (%) = 74.3; active.
With UCHL5 (ubiquitin C-terminal hydrolase L5) [SID405526605], technical replicate 3, the values are viability, normalised (%) = 42.1; active.

Sorted by “viability, normalised (%)” (low to high): some entries from above.
NUAK1 (NUAK family kinase 1) [SID405528528], technical replicate 2 → viability, normalised (%) = 34; activity call = active
NUAK1 (NUAK family kinase 1) [SID405528528], technical replicate 1 → viability, normalised (%) = 54; activity call = active

More records:
MRPL58 (mitochondrial ribosomal protein L58) [SID405526353], technical replicate 1 gave viability, normalised (%) = 60.5; active.
With MRPL58 (mitochondrial ribosomal protein L58) [SID405526353], technical replicate 1 the deposit lists viability, normalised (%) = 61; active.
With MRPL58 (mitochondrial ribosomal protein L58) [SID405526353], technical replicate 2 the deposit lists viability, normalised (%) = 37.7; active.
MRPL58 (mitochondrial ribosomal protein L58) [SID405526353], technical replicate 2 scored viability, normalised (%) = 67.7; active.
MRPL58 (mitochondrial ribosomal protein L58) [SID405526353], technical replicate 3 scored viability, normalised (%) = 60.4; active.
With MRPL58 (mitochondrial ribosomal protein L58) [SID405526353], technical replicate 3 the deposit lists viability, normalised (%) = 51.8; active.
NFATC1 (nuclear factor of activated T cells 1) [SID405527069], technical replicate 1 showed viability, normalised (%) = 35.6; active.
With NFATC1 (nuclear factor of activated T cells 1) [SID405527069], technical replicate 2, the values are viability, normalised (%) = 40.6; active.
NFATC1 (nuclear factor of activated T cells 1) [SID405527069], technical replicate 3 gave viability, normalised (%) = 30.4; active.
